Measurements taken from patent US20230242936A1, “DUAL PROMOTER SYSTEMS” (Seattle Children's Hospital (dba Seattle Children's …, priority 2020, published 2023).
For at least one compound, name, drawing or mass did not settle the structure.

Tested on: iSynPro promoter
Assay: Inhibition of the inducible iSynPro promoter in activated CAR T cells (FACS for GFP)
Format: cell-based
Details: 100 nM dasatinib, anti-CD19 CAR T cells activated by contacting with CD19 antigen

## Cc1nc(Nc2ncc(C(=O)Nc3c(C)cccc3Cl)s2)cc(N2CCN(CCO)CC2)n1 [dasatinib]
  transcription from the iSynPro promoter (GFP expression): inhibited transcription from the iSynPro promoter
